Measurements taken from PMC7898959, “Identification of an amino-terminus determinant critical for ryanodine receptor/Ca^2+ release channel function” (Cardiovascular Research, 2020).
Positions count from the first letter of the chain named. Numbers in names are those of the source. These are yes or no findings as the source states them, for the method shown. For some assays here: Binding seen in cells or lysates may run through a third protein. Some binding calls cover weakened binding; strength is not graded here. Values belong to the molecule of their own block, whether it stands above or below them.

Assays:
[1] = target: full-length human RyR2^R176Q (human) (UniProt Q92736); test: sucrose density gradient centrifugation; CHAPS-solubilized HEK293 microsomes on a continuous 5–40% sucrose gradient, 100 000 × g for 16 h at 4°C; fractions blotted with RyR2 Ab^1093
[2] = target: full-length human RyR2^Δβ8–β9 (amino acids 167–178 removed) (human) (UniProt Q92736); test: as above
[3] = target: NT^Δβ20–β21 (RyR2 residues 1–906, residues 335–358 removed) (human) (UniProt Q92736); test: cross-linking; HEK293 cell homogenate (20 μg) with glutaraldehyde (0.0025% or 260 μmol/L) for 0 min to 1 h under reducing (10 mM DTT) conditions; SDS-PAGE and blot with Ab^cMyc; tetramer formation T = ODT/(ODT + ODM) × 100 by densitometry
[4] = target: NT^β13–β14/4Ala (RyR2 residues 1–906, residues 240–243 substituted by alanine) (human) (UniProt Q92736); test: as above
[5] = target: NT^Δβ31–β32 (RyR2 residues 1–906, residues 748–752 removed) (human) (UniProt Q92736); test: as above
[6] = target: wild-type RyR2 N-terminus (NT, residues 1–906) tagged with the cMyc epitope (human) (UniProt Q92736); test: as above
[7] = target: HA-RyR2-CT (RyR2 C-terminal fragment, residues 3529–4967, N-terminal HA epitope tag) (human) (UniProt Q92736); test: co-IP; HEK293 cells co-expressing HA-RyR2-CT and cMyc-NT constructs; CHAPS-solubilized lysate (20 mM Tris, 150 mM NaCl, 0.5% CHAPS, pH 7.4), IP with Ab^HA on protein A sepharose at 4°C, blot with Ab^cMyc; in 1 mM EGTA or 100 μM CaCl2; non-immune rabbit IgG as negative control
[8] = target: NT^(K167A + Q168A) (RyR2 residues 1–906) (human) (UniProt Q92736); test: cross-linking; HEK293 cell homogenate (20 μg) with glutaraldehyde (0.0025% or 260 μmol/L) for 0 min to 1 h under reducing (10 mM DTT) conditions; SDS-PAGE and blot with Ab^cMyc; tetramer formation T = ODT/(ODT + ODM) × 100 by densitometry
[9] = target: NT^(E173A + K174A) (RyR2 residues 1–906) (human) (UniProt Q92736); test: as above

Molecule: full-length human RyR2^R176Q (from UniProt Q92736 1-4967)
binding [1]: binds

Molecule: full-length human RyR2^Δβ8–β9 (amino acids 167–178 removed) (from UniProt Q92736 1-4967)
binding [2]: binds weakly

B1: wild-type RyR2 N-terminus (NT, residues 1–906) tagged with the cMyc epitope (domain or fragment, human, UniProt Q92736 1-906, looked up)
chain: MADGGEGEDEIQFLRTDDEVVLQCTATIHKEQQKLCLAAEGFGNRLCFLESTSNSKNVPPDLSICTFVLEQSLSVRALQEMLANTVEKSEGQVDVEKWKFMMKTAQGGGHRTLLYGHAILLRHSYSGMYLCCLSTSRSSTDKLAFDVGLQEDTTGEACWWTIHPASKQRSEGEKVRVGDDLILVSVSSERYLHLSYGNGSLHVDAAFQQTLWSVAPISSGSEAAQGYLIGGDVLRLLHGHMDECLTVPSGEHGEEQRRTVHYEGGAVSVHARSLWRLETLRVAWSGSHIRWGQPFRLRHVTTGKYLSLMEDKNLLLMDKEKADVKSTAFTFRSSKEKLDVGVRKEVDGMGTSEIKYGDSVCYIQHVDTGLWLTYQSVDVKSVRMGSIQRKAIMHHEGHMDDGISLSRSQHEESRTARVIRSTVFLFNRFIRGLDALSKKAKASTVDLPIESVSLSLQDLIGYFHPPDEHLEHEDKQNRLRALKNRQNLFQEEGMINLVLECIDRLHVYSSAAHFADVAGREAGESWKSILNSLYELLAALIRGNRKNCAQFSGSLDWLISRLERLEASSGILEVLHCVLVESPEALNIIKEGHIKSIISLLDKHGRNHKVLDVLCSLCVCHGVAVRSNQHLICDNLLPGRDLLLQTRLVNHVSSMRPNIFLGVSEGSAQYKKWYYELMVDHTEPFVTAEATHLRVGWASTEGYSPYPGGGEEWGGNGVGDDLFSYGFDGLHLWSGCIARTVSSPNQHLLRTDDVISCCLDLSAPSISFRINGQPVQGMFENFNIDGLFFPVVSFSAGIKVRFLLGGRHGEFKFLPPPGYAPCYEAVLPKEKLKVEHSREYKQERTYTRDLLGPTVSLTQAAFTPIPVDTSQIVLPPHLERIREKLAENIHELWVMNKIELGWQYGP
notes: cardiac ryanodine receptor (RyR2), N-terminus, residues 1-906; species is stated for the full-length RyR2 cDNA (human), not for NT itself; also called NT^WT; source: HEK293, transiently transfected, in cell homogenate (cross-linking) or CHAPS-solubilized lysate (co-IP); not shown: cMyc, N-terminal, kept
binding [6]: binds
binding [7]: binds

B2: NT^(K167A + Q168A) (RyR2 residues 1–906) (domain or fragment, human, UniProt Q92736 1-906, looked up)
chain: B1 chain with K167A, Q168A
notes: cardiac ryanodine receptor (RyR2), N-terminus, residues 1-906, double alanine substitution K167 + Q168; source: HEK293, transiently transfected, in cell homogenate; not shown: cMyc, N-terminal, kept
binding [8]: binds

B3: NT^(E173A + K174A) (RyR2 residues 1–906) (domain or fragment, human, UniProt Q92736 1-906, looked up)
chain: B1 chain with E173A, K174A
notes: cardiac ryanodine receptor (RyR2), N-terminus, residues 1-906, double alanine substitution E173 + K174; negative control mutant; source: HEK293, transiently transfected, in cell homogenate; not shown: cMyc, N-terminal, kept
binding [9]: binds

B4: NT^R176Q (RyR2 residues 1–906 with the arrhythmia-linked R176Q mutation) (domain or fragment, human, UniProt Q92736 1-906, looked up)
chain: B1 chain with R176Q
notes: cardiac ryanodine receptor (RyR2), N-terminus, residues 1-906, with the disease-linked (ARVD2, CPVT) mutation R176Q; source: HEK293, transiently transfected, in cell homogenate (cross-linking) or CHAPS-solubilized lysate (co-IP); not shown: cMyc, N-terminal, kept
binding [7]: binds

Second part, the molecule after the results:

binding [3]: binds
Molecule: NT^Δβ20–β21 (RyR2 residues 1–906, residues 335–358 removed) (from UniProt Q92736 1-906) (domain or fragment)

binding [4]: binds
Molecule: NT^β13–β14/4Ala (RyR2 residues 1–906, residues 240–243 substituted by alanine) (from UniProt Q92736 1-906) (domain or fragment)

binding [5]: binds
Molecule: NT^Δβ31–β32 (RyR2 residues 1–906, residues 748–752 removed) (from UniProt Q92736 1-906) (domain or fragment)

binding [7]: binds
B5: NT^Δβ8–β9 (RyR2 residues 1–906, residues 167–178 removed) (domain or fragment, human, UniProt Q92736 1-906, looked up)
chain: MADGGEGEDEIQFLRTDDEVVLQCTATIHKEQQKLCLAAEGFGNRLCFLESTSNSKNVPPDLSICTFVLEQSLSVRALQEMLANTVEKSEGQVDVEKWKFMMKTAQGGGHRTLLYGHAILLRHSYSGMYLCCLSTSRSSTDKLAFDVGLQEDTTGEACWWTIHPASDDLILVSVSSERYLHLSYGNGSLHVDAAFQQTLWSVAPISSGSEAAQGYLIGGDVLRLLHGHMDECLTVPSGEHGEEQRRTVHYEGGAVSVHARSLWRLETLRVAWSGSHIRWGQPFRLRHVTTGKYLSLMEDKNLLLMDKEKADVKSTAFTFRSSKEKLDVGVRKEVDGMGTSEIKYGDSVCYIQHVDTGLWLTYQSVDVKSVRMGSIQRKAIMHHEGHMDDGISLSRSQHEESRTARVIRSTVFLFNRFIRGLDALSKKAKASTVDLPIESVSLSLQDLIGYFHPPDEHLEHEDKQNRLRALKNRQNLFQEEGMINLVLECIDRLHVYSSAAHFADVAGREAGESWKSILNSLYELLAALIRGNRKNCAQFSGSLDWLISRLERLEASSGILEVLHCVLVESPEALNIIKEGHIKSIISLLDKHGRNHKVLDVLCSLCVCHGVAVRSNQHLICDNLLPGRDLLLQTRLVNHVSSMRPNIFLGVSEGSAQYKKWYYELMVDHTEPFVTAEATHLRVGWASTEGYSPYPGGGEEWGGNGVGDDLFSYGFDGLHLWSGCIARTVSSPNQHLLRTDDVISCCLDLSAPSISFRINGQPVQGMFENFNIDGLFFPVVSFSAGIKVRFLLGGRHGEFKFLPPPGYAPCYEAVLPKEKLKVEHSREYKQERTYTRDLLGPTVSLTQAAFTPIPVDTSQIVLPPHLERIREKLAENIHELWVMNKIELGWQYGP
notes: also called β8–β9 loop deletion; source: HEK293, transiently transfected, in cell homogenate (cross-linking) or CHAPS-solubilized lysate (co-IP); not shown: cMyc, N-terminal, kept
